# From publication doi:10.1101/2024.01.16.575602
# Protein sequences, listed by entry. Tags and fused reporters are not part of them.
# UniProt P43694: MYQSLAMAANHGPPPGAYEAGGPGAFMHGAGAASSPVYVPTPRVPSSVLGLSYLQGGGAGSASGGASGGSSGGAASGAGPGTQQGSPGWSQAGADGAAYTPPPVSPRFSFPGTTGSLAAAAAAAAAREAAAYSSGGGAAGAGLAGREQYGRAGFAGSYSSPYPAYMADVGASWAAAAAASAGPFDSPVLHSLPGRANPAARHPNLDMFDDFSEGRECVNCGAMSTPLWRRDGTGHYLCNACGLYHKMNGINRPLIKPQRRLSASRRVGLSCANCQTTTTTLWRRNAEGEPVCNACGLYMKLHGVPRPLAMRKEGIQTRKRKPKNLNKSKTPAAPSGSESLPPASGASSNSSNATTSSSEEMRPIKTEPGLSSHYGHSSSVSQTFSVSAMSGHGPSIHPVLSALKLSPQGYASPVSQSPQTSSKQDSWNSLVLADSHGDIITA
# UniProt Q09472: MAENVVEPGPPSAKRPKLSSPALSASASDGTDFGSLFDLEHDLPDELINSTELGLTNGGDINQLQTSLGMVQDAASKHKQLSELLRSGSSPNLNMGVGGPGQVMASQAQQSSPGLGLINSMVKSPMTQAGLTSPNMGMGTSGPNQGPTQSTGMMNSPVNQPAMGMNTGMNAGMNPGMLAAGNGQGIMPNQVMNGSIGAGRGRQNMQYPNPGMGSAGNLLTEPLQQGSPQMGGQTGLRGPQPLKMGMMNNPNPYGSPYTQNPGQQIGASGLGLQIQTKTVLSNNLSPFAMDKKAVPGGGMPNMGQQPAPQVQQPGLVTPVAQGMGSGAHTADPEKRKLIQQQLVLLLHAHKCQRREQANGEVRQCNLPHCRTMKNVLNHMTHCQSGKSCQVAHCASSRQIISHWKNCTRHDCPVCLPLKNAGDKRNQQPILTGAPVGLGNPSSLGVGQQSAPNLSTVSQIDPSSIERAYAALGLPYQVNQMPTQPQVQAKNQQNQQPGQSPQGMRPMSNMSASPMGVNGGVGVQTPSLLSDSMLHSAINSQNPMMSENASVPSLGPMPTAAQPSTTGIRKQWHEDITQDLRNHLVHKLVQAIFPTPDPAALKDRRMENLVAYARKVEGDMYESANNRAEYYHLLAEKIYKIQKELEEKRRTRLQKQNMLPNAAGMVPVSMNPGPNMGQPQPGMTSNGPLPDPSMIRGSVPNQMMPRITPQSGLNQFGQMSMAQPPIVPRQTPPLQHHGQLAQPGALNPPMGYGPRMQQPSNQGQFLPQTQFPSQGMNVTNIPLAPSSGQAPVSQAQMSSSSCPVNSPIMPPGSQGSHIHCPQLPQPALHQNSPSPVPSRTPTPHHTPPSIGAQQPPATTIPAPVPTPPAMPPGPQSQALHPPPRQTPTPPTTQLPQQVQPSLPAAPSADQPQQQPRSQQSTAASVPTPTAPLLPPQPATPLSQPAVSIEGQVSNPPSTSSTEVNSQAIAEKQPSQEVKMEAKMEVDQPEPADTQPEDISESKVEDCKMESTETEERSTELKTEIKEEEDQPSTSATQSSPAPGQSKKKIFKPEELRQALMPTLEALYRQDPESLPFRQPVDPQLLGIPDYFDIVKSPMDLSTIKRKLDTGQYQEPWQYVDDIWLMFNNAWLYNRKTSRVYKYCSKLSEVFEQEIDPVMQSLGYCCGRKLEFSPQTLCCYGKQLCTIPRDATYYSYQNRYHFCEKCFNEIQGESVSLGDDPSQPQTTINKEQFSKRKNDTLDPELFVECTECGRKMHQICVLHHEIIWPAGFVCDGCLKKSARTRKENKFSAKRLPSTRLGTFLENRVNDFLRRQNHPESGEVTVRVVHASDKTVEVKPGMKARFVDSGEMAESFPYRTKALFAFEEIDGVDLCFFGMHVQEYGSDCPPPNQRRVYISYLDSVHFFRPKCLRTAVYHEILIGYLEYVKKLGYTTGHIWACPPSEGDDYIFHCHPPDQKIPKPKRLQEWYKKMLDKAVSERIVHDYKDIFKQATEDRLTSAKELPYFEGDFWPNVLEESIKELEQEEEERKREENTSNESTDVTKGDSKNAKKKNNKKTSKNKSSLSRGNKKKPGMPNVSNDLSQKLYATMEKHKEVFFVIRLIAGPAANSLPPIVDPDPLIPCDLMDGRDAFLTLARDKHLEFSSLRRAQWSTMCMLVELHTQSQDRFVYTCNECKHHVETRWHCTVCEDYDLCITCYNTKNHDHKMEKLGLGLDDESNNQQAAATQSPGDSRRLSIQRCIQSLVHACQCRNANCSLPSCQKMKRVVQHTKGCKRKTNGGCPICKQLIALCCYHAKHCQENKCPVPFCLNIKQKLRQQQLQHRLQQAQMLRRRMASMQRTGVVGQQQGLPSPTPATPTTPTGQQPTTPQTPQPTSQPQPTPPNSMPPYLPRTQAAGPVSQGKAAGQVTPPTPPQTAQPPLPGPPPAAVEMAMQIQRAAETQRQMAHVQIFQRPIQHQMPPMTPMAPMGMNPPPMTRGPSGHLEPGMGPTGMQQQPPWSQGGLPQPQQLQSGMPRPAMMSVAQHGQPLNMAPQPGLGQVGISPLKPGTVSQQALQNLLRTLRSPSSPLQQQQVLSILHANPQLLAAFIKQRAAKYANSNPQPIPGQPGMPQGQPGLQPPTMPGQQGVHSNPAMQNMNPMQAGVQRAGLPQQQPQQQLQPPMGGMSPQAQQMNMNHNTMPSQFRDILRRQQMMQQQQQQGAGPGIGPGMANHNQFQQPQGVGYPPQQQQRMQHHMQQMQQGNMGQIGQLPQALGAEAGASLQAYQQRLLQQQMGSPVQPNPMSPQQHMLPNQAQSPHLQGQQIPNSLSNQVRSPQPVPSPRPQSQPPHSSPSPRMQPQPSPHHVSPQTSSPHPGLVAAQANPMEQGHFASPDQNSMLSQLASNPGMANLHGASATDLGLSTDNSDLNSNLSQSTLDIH
# These are yes or no findings as the source states them, for the method shown. Binding seen in cells or lysates may run through a third protein. Some binding calls cover weakened binding; strength is not graded here.
# Target: GATA4 (UniProt P43694)
# Assay: co-IP
substance,measurement,value
p300 (from UniProt Q09472 1-2414),binding,binds
